Measurements reported in publication doi:10.1101/2023.07.11.548643.
No constants are given. Whether binding was seen depends on the method and setting. Binding seen in cells or lysates may run through a third protein. Some entries that bind do so weakly or less than the wild type.

Chains of the proteins cited; added tags and fusions are not shown.
UniProt P04198: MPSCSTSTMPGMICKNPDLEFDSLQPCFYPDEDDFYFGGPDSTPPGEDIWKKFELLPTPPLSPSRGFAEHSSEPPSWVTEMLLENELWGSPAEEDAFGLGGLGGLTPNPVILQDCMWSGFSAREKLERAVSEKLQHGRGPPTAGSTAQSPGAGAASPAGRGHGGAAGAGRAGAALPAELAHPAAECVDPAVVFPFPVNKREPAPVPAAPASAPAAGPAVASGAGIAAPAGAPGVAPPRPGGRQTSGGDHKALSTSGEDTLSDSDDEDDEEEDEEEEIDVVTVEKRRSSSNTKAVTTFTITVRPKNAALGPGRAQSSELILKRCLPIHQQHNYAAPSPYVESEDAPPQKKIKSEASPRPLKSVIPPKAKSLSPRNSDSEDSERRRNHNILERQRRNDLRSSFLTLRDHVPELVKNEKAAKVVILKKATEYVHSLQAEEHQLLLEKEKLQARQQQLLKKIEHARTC
UniProt Q96KQ7: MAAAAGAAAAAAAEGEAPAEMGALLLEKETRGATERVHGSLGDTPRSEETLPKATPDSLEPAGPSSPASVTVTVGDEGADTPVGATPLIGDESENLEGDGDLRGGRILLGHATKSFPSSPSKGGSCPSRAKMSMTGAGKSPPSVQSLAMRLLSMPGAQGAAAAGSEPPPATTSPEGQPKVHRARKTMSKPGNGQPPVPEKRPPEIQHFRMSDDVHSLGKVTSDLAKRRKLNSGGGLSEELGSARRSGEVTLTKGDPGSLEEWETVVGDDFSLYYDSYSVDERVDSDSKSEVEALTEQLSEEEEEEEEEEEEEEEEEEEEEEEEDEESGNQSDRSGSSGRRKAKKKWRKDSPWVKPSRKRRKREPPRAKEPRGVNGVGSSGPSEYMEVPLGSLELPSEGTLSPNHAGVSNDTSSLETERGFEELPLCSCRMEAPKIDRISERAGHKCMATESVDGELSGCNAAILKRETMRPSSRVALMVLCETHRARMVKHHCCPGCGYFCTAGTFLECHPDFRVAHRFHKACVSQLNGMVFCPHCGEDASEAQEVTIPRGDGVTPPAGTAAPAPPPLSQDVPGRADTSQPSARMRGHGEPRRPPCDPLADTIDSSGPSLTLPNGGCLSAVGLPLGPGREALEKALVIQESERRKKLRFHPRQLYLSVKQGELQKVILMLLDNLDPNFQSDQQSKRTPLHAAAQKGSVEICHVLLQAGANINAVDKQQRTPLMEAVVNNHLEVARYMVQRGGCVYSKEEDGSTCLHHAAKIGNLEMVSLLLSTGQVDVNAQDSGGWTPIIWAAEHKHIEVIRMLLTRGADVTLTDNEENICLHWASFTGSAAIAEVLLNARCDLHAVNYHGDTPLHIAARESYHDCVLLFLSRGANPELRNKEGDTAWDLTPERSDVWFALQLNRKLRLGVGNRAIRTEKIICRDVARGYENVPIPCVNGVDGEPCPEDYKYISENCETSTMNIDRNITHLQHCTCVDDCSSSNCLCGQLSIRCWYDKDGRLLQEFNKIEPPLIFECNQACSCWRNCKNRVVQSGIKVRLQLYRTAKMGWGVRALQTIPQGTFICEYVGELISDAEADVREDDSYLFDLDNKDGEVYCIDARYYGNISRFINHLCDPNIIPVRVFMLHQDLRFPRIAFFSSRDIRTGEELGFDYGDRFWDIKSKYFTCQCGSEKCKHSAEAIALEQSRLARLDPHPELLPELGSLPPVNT

Molecular target: MYCN (human (endogenous in IMR32)) (UniProt P04198)
Assay: co-IP; validation: MYCN co-IP from IMR32 cells and western blot with antibodies to MYCN, G9a and WDR5; Benzonase (500 U/ml) and Mg2+ (2 mM) added as indicated

binding: binds
Substance: G9a (from UniProt Q96KQ7 1-1210)
